# From PubChem BioAssay AID493014 (National Center for Advancing Translational Sciences (NCATS), 2011)
# “And” between values parts separate entries of the source, which are not always exact repeats. Identical values can stand only once. The list shows a part of the results. These are further read-outs of the screen, such as a control signal, another cell line or another target. No call is given for them. The list favours compounds with an active or inconclusive main result. Words in brackets tell the shape of the fitted curve; partial curves, single points and poor fits give uncertain potencies.
# Experiment: qHTS Assay to Find Inhibitors of Chronic Active B-Cell Receptor Signaling
# Settings: ABC-DLBCL IkBa-CBG/CBR reporter, luminescence ratio (green luciferase fused to IkBa over red control in TMD8 lymphoma cells), 4 h
# Text: NIH Molecular Libraries Probe Production Network [MLPCN] NIH Chemical Genomics Center [NCGC] MLPCN Grant: 1 R03 DA031086-01A1 PI Name: Dr. R. Eric Davis NCGC Assay Overview: Diffuse large B-cell lymphoma (DLBCL) is the most common category of non-Hodgkin lymphoma, with ~20,000 new cases per year in the United States. DLBCL should be regarded as a collection of different neoplasms. Microarray gene expression analysis has defined two principal types of DLBCL, named for their similarity to normal B cell stages or activation states: a germinal center B-cell (GCB) type, and an activated B-cell (ABC) type. In ABC-DLBCL, a constitutive high-level activity of the NF-kappaB family of transcription factors has been observed (1) and NF-kappaB target genes are more highly expressed in ABC primary tumors than in GCB tumors. Functional studies have shown a constitutive high-level activity of the IkappaB (inhibitor of kappa-B) kinase (IKK) complex. […] Further analysis of DLBCL primary tumors for NF-kappaB target gene expression imply that although CARD11 is required for constitutive IKK activity in all ABC-DLBCL lines, mutations in CARD11 may be the root cause of IKK activation only in lines or tumors with such mutations. In other words, CARD11 mutations may explain NF-kappaB activation in only 10% of ABC-DLBCL cases. […] This process has been termed 'chronic active BCR signaling' (CABS). The goal of this screen is to find small-molecule inhibitors of the CABS pathway found in ABC-DLBCL lines using a cell-based assay that measures IkappaBalpa stability, which has already been extensively validated in the OCI-Ly3 line (PubChem AID:445; REF: 4). […] The assay uses green (CBG68) and red (CBR) emitting beetle luciferases [Chroma-GloTM developed by Promega Corp.] where the green luciferase is fused to IkappaBalpha and the red luciferase is present in its native state. Both luciferase genes are stably present in the TMD8 human ABC DLBCL cell line, but their expression is under the control of tetracycline-inducible promoters. Following the addition of doxycycline to induce expression of the luciferases, the green luminescence in control cultures rises only slowly because the CBG fusion partner IkappaBalpha is targeted by IKK activity for rapid degradation. In contrast, green luminescence rises rapidly in the presence of proteasome inhibitors or IKK inhibitors. The rise in red luminescence of CBR is not affected by proteasome or IKK inhibitors, and serves as normalization for cell number and nonspecific effects. Compounds were screened as a concentration-titration series that ranged from 46 uM to 3 nM.
# NCGC Assay Protocol Summary: Cells were seeded in 1536-well plates at 5000 cells/4uL in IMDM medium containing 0.5% FBS, w/o phenol red, 1% penicillin/streptomycin. Then, 23 nL of compounds or DMSO were delivered to each well using a pin tool. One uL 20ng/ml doxycycline was then dispensed into white solid 1536-well plates and the plates were incubated at 37C/5% C02 in a cell incubator for 4 hrs. Then 4 uL luminescent substrate mix (in-house prepared: 150 mM Tris-Cl, pH 7.6, 3 mM MgCl2, 1% Triton X-100, 5 mM DTT, 0.2 mM CoA, 0.15 mM ATP, 5 mM D-luciferin, final concentrations) was added to each well. The plate was incubated at r.t. for 10-15 min. The plates were measured on a ViewLux plate reader for green luminescence (540/20 nm filter) and red luminescence (618/8 nm filter). The green and red luminescent signals were corrected for red and green luminescence filter overlap using previously determined filter calibration constants (determined using the procedure outlined in the Promega Technical Manual; REF 4). The %Activity was determined from the ratio of corrected green/red luminescent values. MG132 were used as control. […] Red luminescent %Activity was normalized to the difference between red luminesence in basal cells (0%Activity) and zero luminescence (-100% Activity). […]
# [1] = measured here: CBR red luminescence, cell number
# [2] = measured here: IkBa-CBG green luminescence
Structure (SMILES),AC50 [1],AC50 [2]
COP(=O)(OC)C(NC(=O)C(C)(C)C)=C(Cl)Cl,"18.4 µM [rising, single point]",
O=C(N/N=C/c1c(O)n(-c2cccc3ccccc23)c(=O)[nH]c1=O)c1ccncc1,"35.5 µM [falling, single point]",
CCOc1ccc(-c2c(C)n(-c3ccc(OCC)cc3)c3[n+]2CCCCC3)cc1,"6.31 µM [falling, partial curve]",
CCC(=NCCC(c1ccccc1)c1ccccc1)c1c(O)[nH]c(=O)[nH]c1=O,,"18.4 µM [falling, partial curve]"
CC(C)c1ccc(N2CC(C)(C)C2=O)cc1,"20 µM [rising, partial curve, poor fit]",
COc1ccc(-n2cnc3cc(C(=O)N4CCC5(CC4)OCCO5)ccc32)cc1,"11.2 µM [rising, single point]","25.1 µM [falling, single point]"
O=C1NC(=O)N(Cc2ccc(F)cc2)C(=O)/C1=C\C=C\c1ccco1,"31.6 µM [rising, single point]","35.5 µM [falling, single point]"
CCSc1cc(C2C(C#N)=C(N)Oc3n[nH]c(C)c32)c(C)o1 (configuration not stated),,"23.1 µM [falling, partial curve, poor fit]"
CCCCOP(=O)(c1ccc(N(C)C)cc1)C(O)c1ccc(N(C)C)cc1 (configuration not stated),"0.112 µM [rising, full curve, poor fit]",
O=C(CSc1ccccc1)N1CCC2(CC1)OCCO2,"23.1 µM [rising, single point]",
O=C1C(Cc2cnc[nH]2)NC(=S)N1c1ccccc1 (configuration not stated),"10 µM [rising, partial curve, poor fit]",
COC(=O)c1ccccc1NS(=O)(=O)c1ccc2c3c(cccc13)C(=O)N2,"10 µM [rising, partial curve, poor fit]",
COc1ccc(C2NCc3ccc4c(c3-n3cccc32)OCO4)cc1OC (configuration not stated),"1.78 µM [rising, partial curve]",
O=C(c1ccc(N2CCCCC2)c([N+](=O)[O-])c1)N1CCC2(CC1)OCCO2,"35.5 µM [rising, single point]",
CN1CCc2nc(N)c(C#N)c(-c3ccccc3)c2C1,"16.4 µM [falling, single point]",
C[C@]12CCC3C(CC[C@H]4C[C@@H](O)CC[C@]34C)C1C[C@H](Br)[C@@H]2O (some centres not stated),"6.51 µM [rising, single point]",
O=C(NCCN1CCCCC1)c1ccc(Cl)nc1Cl,"25.1 µM [rising, single point]",
O=C1COc2ccc(C(=O)COC(=O)Cc3ccccc3)cc2N1,"6.51 µM [rising, full curve, poor fit]",
Cc1cc2c(C(C)C)c(O)c(O)c(C=O)c2c(O)c1-c1c(C)cc2c(C(C)C)c(O)c(O)c(C=O)c2c1O,"29.1 µM [falling, single point] and 5.17 µM [falling, single point]","15.8 µM [rising, partial curve, poor fit] and 29.1 µM [rising, single point]"

Structure (SMILES),AC50 [1],AC50 [2]
Brc1ccc2c(c1)C(OC1CN3CCC1CC3)c1ccccc1CS2 (configuration not stated),"29.1 µM [falling, single point]",
Cc1cc(Cl)ccc1OC(C)C(=O)O (configuration not stated),"22.4 µM [rising, single point]",
CCOc1ccc(CCn2c(-c3ccco3)nc3ccccc3c2=O)cc1OCC,"2.82 µM [falling, full curve]",
CCCCCCn1c(O)c(C=Nc2ccccc2N2CCOCC2)c(=O)[nH]c1=S,"0.355 µM [rising, full curve, poor fit]",
CCCCOc1ccc(CC2C(=O)N(C)C(=O)N(C)C2=O)cc1,"7.94 µM [falling, partial curve, poor fit]",
COC(=O)[C@]1(C)C[C@H]1[C@H](NP(=O)(c1ccccc1)c1ccccc1)c1ccccc1,"29.1 µM [falling, single point]",
O=C(/C=C/c1ccccc1)C1C(=O)c2ccccc2C1=O,"1.46 µM [falling, full curve]",
CCCn1c(C(=O)c2ccc(OC)cc2)nc2ccccc21,"17.8 µM [rising, single point]",
CCN1CCN(Cc2cc(C(C)(C)C)c(O)c(C(C)(C)C)c2)CC1,"11.6 µM [falling, partial curve, poor fit]",
NC(=O)c1ccsc1NC(=O)COC(=O)Cc1ccccc1,"0.366 µM [falling, partial curve, poor fit]",
CC(C)c1ccc(N2C(=O)NC(=O)/C(=C/C=C/c3ccco3)C2=O)cc1,,"25.9 µM [falling, single point]"
COc1ccc(C(C)=O)cc1CC(C(=O)c1ccccc1)N(C)C (configuration not stated),"29.1 µM [rising, single point]",
O=C(c1ccc(Cl)cc1)c1cc([N+](=O)[O-])ccc1N1CCOCC1,"8.91 µM [rising, partial curve]",
CCCCCCCCn1sccc1=O,"25.9 µM [falling, single point]","6.51 µM [falling, single point]"
CCOC(=O)C1=C(N)OC2=C(C(=O)CCC2)[C@]12C(=O)N(CC(N)=O)c1ccccc12,"1 µM [rising, full curve, poor fit]",
C=C1C(O)[C@@H]2O[C@]3(CC[C@H](/C=C/C(C)[C@@H]4CC(C)=CC5(O[C@H](C[C@@](C)(O)C(=O)O)CCC5O)O4)O3)CC[C@H]2O[C@@H]1C(O)CC(C)[C@H]1OC2(CCCCO2)CCC1C (some centres not stated),"0.58 µM [falling, full curve, poor fit]",
O=P(Oc1ccccc1)(Oc1ccccc1)N1CCN(c2ccc(F)cc2)CC1,"35.5 µM [falling, single point]",
COC(=O)C1=C(N)Oc2c(c(=O)oc3ccccc23)[C@]12C(=O)N(C)c1ccccc12,"0.316 µM [falling, full curve, poor fit]",
COC(=O)C1=C(c2ccc(Cl)c(C(F)(F)F)c2)C[C@@H]2CC[C@H]1N2C(=O)NCCOc1ccc(OC)cc1,"16.4 µM [falling, single point]",
